Results are given in words; binding and its absence hold for the method and conditions named. For some assays here: Binding seen in cells or lysates may run through a third protein. Some results given as binding are weak or reduced against the parent protein; the word gives no strength. Sequences can lack the tags named with a protein.
T1: FLAG-tagged NOD1 expressed in SUM159 cells (human) (UniProt Q9Y239)
T1 sequence: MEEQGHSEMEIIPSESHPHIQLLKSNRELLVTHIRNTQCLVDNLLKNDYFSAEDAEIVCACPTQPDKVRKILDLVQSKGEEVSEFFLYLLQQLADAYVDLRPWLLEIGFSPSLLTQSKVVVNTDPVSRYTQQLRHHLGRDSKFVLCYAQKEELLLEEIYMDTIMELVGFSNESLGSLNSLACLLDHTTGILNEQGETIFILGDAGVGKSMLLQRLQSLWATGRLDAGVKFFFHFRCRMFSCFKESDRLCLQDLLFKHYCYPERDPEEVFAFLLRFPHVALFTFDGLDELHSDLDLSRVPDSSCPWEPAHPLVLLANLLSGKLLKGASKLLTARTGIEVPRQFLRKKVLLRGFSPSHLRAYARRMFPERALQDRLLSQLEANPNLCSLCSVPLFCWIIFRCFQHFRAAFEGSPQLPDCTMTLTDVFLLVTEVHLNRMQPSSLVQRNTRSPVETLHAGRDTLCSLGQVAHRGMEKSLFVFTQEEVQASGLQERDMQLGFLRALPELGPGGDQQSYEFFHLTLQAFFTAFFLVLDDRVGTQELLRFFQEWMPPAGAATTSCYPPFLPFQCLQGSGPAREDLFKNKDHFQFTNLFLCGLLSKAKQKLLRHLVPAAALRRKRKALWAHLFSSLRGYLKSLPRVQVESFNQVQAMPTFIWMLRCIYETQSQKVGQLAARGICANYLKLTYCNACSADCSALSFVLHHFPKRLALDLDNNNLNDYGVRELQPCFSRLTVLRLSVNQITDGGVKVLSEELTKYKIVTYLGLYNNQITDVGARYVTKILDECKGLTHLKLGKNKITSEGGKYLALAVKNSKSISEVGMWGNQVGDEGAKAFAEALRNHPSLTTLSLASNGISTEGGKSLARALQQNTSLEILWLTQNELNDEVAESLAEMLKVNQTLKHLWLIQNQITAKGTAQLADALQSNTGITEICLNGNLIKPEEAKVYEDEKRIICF

T2: FLAG-tagged NOD1, purified protein (human) (UniProt Q9Y239)
T2 sequence: T1 sequence

B1: GAK expressed in SUM159 cells (enzyme, UniProt O14976 1-1311)
chain: MSLLQSALDFLAGPGSLGGASGRDQSDFVGQTVELGELRLRVRRVLAEGGFAFVYEAQDVGSGREYALKRLLSNEEEKNRAIIQEVCFMKKLSGHPNIVQFCSAASIGKEESDTGQAEFLLLTELCKGQLVEFLKKMESRGPLSCDTVLKIFYQTCRAVQHMHRQKPPIIHRDLKVENLLLSNQGTIKLCDFGSATTISHYPDYSWSAQRRALVEEEITRNTTPMYRTPEIIDLYSNFPIGEKQDIWALGCILYLLCFRQHPFEDGAKLRIVNGKYSIPPHDTQYTVFHSLIRAMLQVNPEERLSIAEVVHQLQEIAAARNVNPKSPITELLEQNGGYGSATLSRGPPPPVGPAGSGYSGGLALAEYDQPYGGFLDILRGGTERLFTNLKDTSSKVIQSVANYAKGDLDISYITSRIAVMSFPAEGVESALKNNIEDVRLFLDSKHPGHYAVYNLSPRTYRPSRFHNRVSECGWAARRAPHLHTLYNICRNMHAWLRQDHKNVCVVHCMDGRAASAVAVCSFLCFCRLFSTAEAAVYMFSMKRCPPGIWPSHKRYIEYMCDMVAEEPITPHSKPILVRAVVMTPVPLFSKQRSGCRPFCEVYVGDERVASTSQEYDKMRDFKIEDGKAVIPLGVTVQGDVLIVIYHARSTLGGRLQAKMASMKMFQIQFHTGFVPRNATTVKFAKYDLDACDIQEKYPDLFQVNLEVEVEPRDRPSREAPPWENSSMRGLNPKILFSSREEQQDILSKFGKPELPRQPGSTAQYDAGAGSPEAEPTDSDSPPSSSADASRFLHTLDWQEEKEAETGAENASSKESESALMEDRDESEVSDEGGSPISSEGQEPRADPEPPGLAAGLVQQDLVFEVETPAVLPEPVPQEDGVDLLGLHSEVGAGPAVPPQACKAPSSNTDLLSCLLGPPEAASQGPPEDLLSEDPLLLASPAPPLSVQSTPRGGPPAAADPFGPLLPSSGNNSQPCSNPDLFGEFLNSDSVTVPPSFPSAHSAPPPSCSADFLHLGDLPGEPSKMTASSSNPDLLGGWAAWTETAASAVAPTPATEGPLFSPGGQPAPCGSQASWTKSQNPDPFADLGDLSSGLQGSPAGFPPGGFIPKTATTPKGSSSWQTSRPPAQGASWPPQAKPPPKACTQPRPNYASNFSVIGAREERGVRAPSFAQKPKVSENDFEDLLSNQGFSSRSDKKGPKTIAEMRKQDLAKDTDPLKLKLLDWIEGKERNIRALLSTLHTVLWDGESRWTPVGMADLVAPEQVKKHYRRAVLAVHPDKAAGQPYEQHAKMIFMELNDAWSEFENQGSRPLF
B2: GAK, purified recombinant protein for the GST pull-down (enzyme, UniProt O14976-1 1-1311)
chain: B1 chain

Tests used:
[1] = target: T1, FLAG-tagged NOD1 expressed in SUM159 cells (human); assay: co-IP; SUM159 cells, reciprocal; lysis in EBC buffer (50 mmol/L Tris, 120 mmol/L NaCl, 0.5% NP40, pH 7.5), FLAG beads or anti-HIS antibody-coupled protein A/G beads overnight at 4°C, washed with NETN buffer; also after treatment of the cells with ETBF or 10 nmol/L BFT-1, which increased the interaction
[2] = target: T2, FLAG-tagged NOD1, purified protein (human); assay: pull-down; in vitro GST pull-down with purified recombinant proteins; which partner was held on the beads is not told; both purified

binding [1] | binding [2] | Binder
binds |  | B1
 | binds | B2

Source: article PMC11131025
